Results published in paper PMC5608970.
Results are given in words; binding and its absence hold for the method and conditions named. In cells and extracts the contact can be indirect. Some binding calls cover weakened binding; strength is not graded here.

Assays:
[1] = target: leucine-rich repeat-containing receptor LGR5 (human) (UniProt O75473); experiment: FRET or BRET; type-3 BRET: GFP2- and Rluc-tagged copies (12:1 pGFP2:pRluc) in HEK293T cells with untagged competitor or blank pU vector (2:1 pU:(pGFP2+pRluc)); p^diff tells whether BRETeff is affected by the competitor
[2] = target: leucine-rich repeat-containing receptor LGR5 (human) (UniProt O75473); experiment: FRET or BRET; type-1 BRET: GFP2- and Rluc-tagged copies of the receptor co-expressed in HEK293T cells, acceptor:donor ratio varied at constant expression; data fitted to monomer versus dimer models (R^2); read 24 hr (some 48 hr) post-transfection
FZD9 (human) [3] = target: FZD9 (human) (UniProt O00144); experiment: FRET or BRET; type-3 BRET: GFP2- and Rluc-tagged copies (12:1 pGFP2:pRluc) in HEK293T cells with untagged competitor or blank pU vector (2:1 pU:(pGFP2+pRluc)); p^diff tells whether BRETeff is affected by the competitor
FZD9 (human) [4] = target: FZD9 (human) (UniProt O00144); experiment: FRET or BRET; type-1 BRET: GFP2- and Rluc-tagged copies of the receptor co-expressed in HEK293T cells, acceptor:donor ratio varied at constant expression; data fitted to monomer versus dimer models (R^2); read 24 hr (some 48 hr) post-transfection
FZD10 (human) [5] = target: FZD10 (human) (UniProt Q9ULW2); experiment: FRET or BRET; type-3 BRET: GFP2- and Rluc-tagged copies (12:1 pGFP2:pRluc) in HEK293T cells with untagged competitor or blank pU vector (2:1 pU:(pGFP2+pRluc)); p^diff tells whether BRETeff is affected by the competitor
FZD10 (human) [6] = target: FZD10 (human) (UniProt Q9ULW2); experiment: FRET or BRET; type-1 BRET: GFP2- and Rluc-tagged copies of the receptor co-expressed in HEK293T cells, acceptor:donor ratio varied at constant expression; data fitted to monomer versus dimer models (R^2); read 24 hr (some 48 hr) post-transfection
[7] = target: CrlC (Dictyostelium discoideum) (UniProt Q6UUW6); experiment: FRET or BRET; type-3 BRET: GFP2- and Rluc-tagged copies (12:1 pGFP2:pRluc) in HEK293T cells with untagged competitor or blank pU vector (2:1 pU:(pGFP2+pRluc)); p^diff tells whether BRETeff is affected by the competitor
[8] = target: CrlC (Dictyostelium discoideum) (UniProt Q6UUW6); experiment: FRET or BRET; type-1 BRET: GFP2- and Rluc-tagged copies of the receptor co-expressed in HEK293T cells, acceptor:donor ratio varied at constant expression; data fitted to monomer versus dimer models (R^2); read 24 hr (some 48 hr) post-transfection
[9] = target: CarB (Dictyostelium discoideum) (UniProt P34907); experiment: FRET or BRET; type-3 BRET: GFP2- and Rluc-tagged copies (12:1 pGFP2:pRluc) in HEK293T cells with untagged competitor or blank pU vector (2:1 pU:(pGFP2+pRluc)); p^diff tells whether BRETeff is affected by the competitor
[10] = target: CarB (Dictyostelium discoideum) (UniProt P34907); experiment: FRET or BRET; type-1 BRET: GFP2- and Rluc-tagged copies of the receptor co-expressed in HEK293T cells, acceptor:donor ratio varied at constant expression; data fitted to monomer versus dimer models (R^2); read 24 hr (some 48 hr) post-transfection

B1: leucine-rich repeat-containing receptor LGR5 (receptor, UniProt O75473 22-907)
chain: GSSPRSGVLLRGCPTHCHCEPDGRMLLRVDCSDLGLSELPSNLSVFTSYLDLSMNNISQLLPNPLPSLRFLEELRLAGNALTYIPKGAFTGLYSLKVLMLQNNQLRHVPTEALQNLRSLQSLRLDANHISYVPPSCFSGLHSLRHLWLDDNALTEIPVQAFRSLSALQAMTLALNKIHHIPDYAFGNLSSLVVLHLHNNRIHSLGKKCFDGLHSLETLDLNYNNLDEFPTAIRTLSNLKELGFHSNNIRSIPEKAFVGNPSLITIHFYDNPIQFVGRSAFQHLPELRTLTLNGASQITEFPDLTGTANLESLTLTGAQISSLPQTVCNQLPNLQVLDLSYNLLEDLPSFSVCQKLQKIDLRHNEIYEIKVDTFQQLLSLRSLNLAWNKIAIIHPNAFSTLPSLIKLDLSSNLLSSFPITGLHGLTHLKLTGNHALQSLISSENFPELKVIEMPYAYQCCAFGVCENAYKISNQWNKGDNSSMDDLHKKDAGMFQAQDERDLEDFLLDFEEDLKALHSVQCSPSPGPFKPCEHLLDGWLIRIGVWTIAVLALTCNALVTSTVFRSPLYISPIKLLIGVIAAVNMLTGVSSAVLAGVDAFTFGSFARHGAWWENGVGCHVIGFLSIFASESSVFLLTLAALERGFSVKYSAKFETKAPFSSLKVIILLCALLALTMAAVPLLGGSKYGASPLCLPLPFGEPSTMGYMVALILLNSLCFLMMTIAYTKLYCNLDKGDLENIWDCSMVKHIALLLFTNCILNCPVAFLSFSSLINLTFISPEVIKFILLVVVPLPACLNPLLYILFNPHFKEDLVSLRKQTYVWTRSKHPSLMSINSDDVEKQSCDSTQALVTFTSSSITYDLPPSSVPSPAYPVTESCHLSSVAFVPCL
Which binding [1] does the source give for B1 here?
Its binding is “binds”.

What about the binding [2] of the same binder?
Its binding is “binds”.

B2: FZD9 (receptor, UniProt O00144 23-591)
chain: LEIGRFDPERGRGAAPCQAVEIPMCRGIGYNLTRMPNLLGHTSQGEAAAELAEFAPLVQYGCHSHLRFFLCSLYAPMCTDQVSTPIPACRPMCEQARLRCAPIMEQFNFGWPDSLDCARLPTRNDPHALCMEAPENATAGPAEPHKGLGMLPVAPRPARPPGDLGPGAGGSGTCENPEKFQYVEKSRSCAPRCGPGVEVFWSRRDKDFALVWMAVWSALCFFSTAFTVLTFLLEPHRFQYPERPIIFLSMCYNVYSLAFLIRAVAGAQSVACDQEAGALYVIQEGLENTGCTLVFLLLYYFGMASSLWWVVLTLTWFLAAGKKWGHEAIEAHGSYFHMAAWGLPALKTIVILTLRKVAGDELTGLCYVASTDAAALTGFVLVPLSGYLVLGSSFLLTGFVALFHIRKIMKTGGTNTEKLEKLMVKIGVFSILYTVPATCVIVCYVYERLNMDFWRLRATEQPCAAAAGPGGRRDCSLPGGSVPTVAVFMLKIFMSLVVGITSGVWVWSSKTFQTWQSLCYRKIAAGRARAKACRAPGSYGRGTHCHYKAPTVVLHMTKTDPSLENPTHL
B2 was tested. Which binding (FZD9 (human) [3]) did it give?
Its binding is “binds”.

And the binding (FZD9 (human) [4])?
Its binding is “binds”.

B3: FZD10 (receptor, UniProt Q9ULW2 21-581)
chain: ISSMDMERPGDGKCQPIEIPMCKDIGYNMTRMPNLMGHENQREAAIQLHEFAPLVEYGCHGHLRFFLCSLYAPMCTEQVSTPIPACRVMCEQARLKCSPIMEQFNFKWPDSLDCRKLPNKNDPNYLCMEAPNNGSDEPTRGSGLFPPLFRPQRPHSAQEHPLKDGGPGRGGCDNPGKFHHVEKSASCAPLCTPGVDVYWSREDKRFAVVWLAIWAVLCFFSSAFTVLTFLIDPARFRYPERPIIFLSMCYCVYSVGYLIRLFAGAESIACDRDSGQLYVIQEGLESTGCTLVFLVLYYFGMASSLWWVVLTLTWFLAAGKKWGHEAIEANSSYFHLAAWAIPAVKTILILVMRRVAGDELTGVCYVGSMDVNALTGFVLIPLACYLVIGTSFILSGFVALFHIRRVMKTGGENTDKLEKLMVRIGLFSVLYTVPATCVIACYFYERLNMDYWKILAAQHKCKMNNQTKTLDCLMAASIPAVEIFMVKIFMLLVVGITSGMWIWTSKTLQSWQQVCSRRLKKKSRRKPASVITSGGIYKKAQHPQKTHHGKYEIPAQSPTCV
Which results are given for B3?
binding (FZD10 (human) [5]): binds; binding (FZD10 (human) [6]): binds

B4: CrlC (receptor, UniProt Q6UUW6 1-361)
chain: MGIEESQICNPSDREFLSVDILNIVTSSLSLMGSALTIISYIWKKVRRHRIQKQQIQQQQQQIEKGGLLSSSITIGNGSSHYGGIGGGGGSGNGTGIGAIGGPHGTYKQPTSKLPLLIFMLSIADFFTSFFIIISQSYLINNSKSYSTPYSPDLKIHFSPCIILRAIIQFFFLSTFFWTTCISYYLFHQLSSPGEEKYLLAIFNVVSWGIPFAISMVITMTNSIVVNSDGWCEVAKPMELSLWFLPLFLCLLVCSIYYFRLRRLFRSKFEYRLQINDRLKQLDSTISRRLTLYIVVFVICWLPDVIQHFISFFSKCTFFPLLILQNILTPSQGFWNFWIYSYTNKIARFTPSNDENKRLLQ
How did the binding [7] turn out when B4 was run?
The binding was “no binding”.

And the binding [8]?
The binding was “no binding”.

B5: CarB (receptor, UniProt P34907 1-375)
chain: MTIMSDIIAQRTILLIADFSSIIGCSLVLIGFWRLKLLRNHITKIISLFCATSLFKDVISTIITLLYKPDQTESGFPCYLHAIVITFGSLACWLWTLMLSFSIYNLIVRREPEPERFEKFYFCLCYGLPLISTIVMLSTHIIQPVGGWCWIGDNYDGYRFGLFYGPFFFIWGTSAILVGLTSKYTYSVIRSSVSDNKDKHMTYQFKLINYIVVFLVCWVFAIVNRILNGLNQFPTVPNVLHTYFSVSHGFYASITFIYNNPLMWRYFGAKFLLIFSKFGLFVQAQQRLELNKNNNNPSPIMRSKNALDNGADSSVVELPCLSKADSLSLDAENNIETPKENENQNHHHHHHHHHHHNHYNNNNNNNNINNKNDMI
What does the source list for B5?
binding [9]: no binding; binding [10]: no binding
